Laboratory results: PubChem BioAssay AID1259405 (NCATS, 2018)

Test: 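Mouse-designed siRNAs used to find CHO productivity engineering targets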 (primary screen)
System: Chinese hamster CHO-K1 ovary cells with stable secreted eGFP expression
Reagents: single siRNA against mouse genes, 0.8 pmol siRNA per well (2 µl of 400 nM stock)
Duration: 3 days
Read-out: 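Per-well intracellular GFP measured by laser scanning cytometry, plus viability from ATP luminescence, each relative to plate median of non-targeting control wells, in %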
Direction: GFP, % of control: higher = more GFP per well, higher productivity; viability (ATP), % of control: higher = more viable cells (more ATP)
Active means: 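Called active when intracellular GFP, relative to negative control, is at or above 120%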
Shown is an unselected part of about 50,000 reagents tested. About 4,000 of them (8%) count as active. 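Mouse siRNA library applied to hamster cells; one well for each siRNA.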 Entries without a mark were called inactive. The numbers tell different reagents against one gene apart. No sequences are given here.

| target | siRNA no. | GFP, % of control | viability (ATP), % of control |
| --- | --- | --- | --- |
| Rps7 | 1 | 33.8 | 16.2 |
| Rps7 | 2 | 67 | 44.9 |
| Rps7 | 3 | 74.6 | 68.1 |
| Vsig8 | 1 | 97.9 | 60.9 |
| Vsig8 | 2 | 26.1 | 45.7 |
| Vsig8 | 3 | 79.2 | 80.6 |
| Vrk1 | 1 | 72.7 | 96.6 |
| Vrk1 | 2 | 57.6 | 64.3 |
| Vrk1 | 3 | 82.8 | 78.4 |
| Psmc3 | 1 | 99.3 | 107 |
| Psmc3 | 2 | 53.6 | 45.2 |
| Psmc3 | 3 | 59.3 | 90.5 |
| Krt13 | 1 | 45.5 | 49.5 |
| Krt13 | 2 | 65.1 | 67.8 |
| Krt13 | 3 | 114 | 75.1 |
| Tnip2 | 1 | 61.1 | 64 |
| Tnip2 | 2 | 120 (active) | 128 |
| Tnip2 | 3 | 128 (active) | 163 |
| Lyzl1 | 1 | 70.4 | 93.4 |
| Lyzl1 | 2 | 76.9 | 108 |
| Lyzl1 | 3 | 46.5 | 52.2 |
| Aoc2 | 1 | 65.3 | 83.3 |
| Aoc2 | 2 | 57.5 | 89.4 |
| Aoc2 | 3 | 72.2 | 79.1 |
| Mfap3l | 1 | 54.4 | 36.4 |
| Mfap3l | 2 | 69.3 | 70.8 |
| Mfap3l | 3 | 59.3 | 55.3 |
| D630023F18Rik | 1 | 66.1 | 84.2 |
| D630023F18Rik | 2 | 89.5 | 75.9 |
| D630023F18Rik | 3 | 99.3 | 69.5 |
| Tnfsf8 | 1 | 57.7 | 74.8 |
| Tnfsf8 | 2 | 133 (active) | 124 |
| Tnfsf8 | 3 | 70.7 | 77.6 |
| Egfl6 | 1 | 73.1 | 68.8 |
| Egfl6 | 2 | 85.7 | 92 |
| Egfl6 | 3 | 45.3 | 49 |
| Klk11 | 1 | 114 | 58.3 |
| Klk11 | 2 | 86.8 | 93.5 |
| Klk11 | 3 | 102 | 93 |
| Gstm4 | 1 | 87.8 | 67.5 |
| Gstm4 | 2 | 107 | 117 |
| Gstm4 | 3 | 128 (active) | 102 |
| Or4d5 | 1 | 19.5 | 24.5 |
| Or4d5 | 2 | 39.5 | 24.8 |
| Or4d5 | 3 | 80.5 | 47.5 |
| Or51h1 | 1 | 106 | 90.8 |
| Or51h1 | 2 | 94.3 | 46.3 |
| Or51h1 | 3 | 55.6 | 69.3 |
| Pmpca | 1 | 50.6 | 58.6 |
| Pmpca | 2 | 63.7 | 72.9 |
| Pmpca | 3 | 83.1 | 78.3 |
| Palm | 1 | 36.3 | 35.4 |
| Palm | 2 | 80.3 | 66.4 |
| Palm | 3 | 110 | 82.2 |
| Zrsr2 | 1 | 75.3 | 64.2 |
| Zrsr2 | 2 | 49.1 | 34.7 |
| Zrsr2 | 3 | 122 (active) | 89.2 |

Limited to “viability (ATP), % of control” (6 entries from above):
Aoc2 #3	79.1
Mfap3l #1	36.4
Mfap3l #2	70.8
Mfap3l #3	55.3
D630023F18Rik #1	84.2
D630023F18Rik #2	75.9
